The campaign covered roughly 390,000 compounds. About 4,000 (1%) were called active. This list was built around the results that the source calls inconclusive (neither active nor inactive); the mix of calls is not that of the screen. The call rests on the fitted dose curve; in most records, active means well fitted inhibition curve with a large enough effect; inconclusive means small, poorly fitted or top-dose-only effect, or another doubt; inactive means no such curve, though single readings can be large or run the other way. Potencies beside an inconclusive call are fits to weak or partial responses and may not hold up.
target: DNA polymerase iota (Homo sapiens) (UniProt Q9UNA4); test: qHTS for Inhibitors of Polymerase Iota; conditions: Pol iota fluorescent replication assay, 10 min; series mostly up to 115 µM; activity, negative = inhibition: at the top concentration
Outline: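 Fluorescent replication assay read twice, at 0 min and 10 min after adding 50 nM (final) substrate. Enzyme (10 nM) and compounds were first incubated 15 min at room temperature; enzyme-free buffer wells were negative controls.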
Potency means the concentration at half of the fitted maximal effect.

Amino acid sequences for entries named in this document (tags omitted). A change or cut given only in a name is not applied to a line headed by its entry.
UniProt Q9UNA4: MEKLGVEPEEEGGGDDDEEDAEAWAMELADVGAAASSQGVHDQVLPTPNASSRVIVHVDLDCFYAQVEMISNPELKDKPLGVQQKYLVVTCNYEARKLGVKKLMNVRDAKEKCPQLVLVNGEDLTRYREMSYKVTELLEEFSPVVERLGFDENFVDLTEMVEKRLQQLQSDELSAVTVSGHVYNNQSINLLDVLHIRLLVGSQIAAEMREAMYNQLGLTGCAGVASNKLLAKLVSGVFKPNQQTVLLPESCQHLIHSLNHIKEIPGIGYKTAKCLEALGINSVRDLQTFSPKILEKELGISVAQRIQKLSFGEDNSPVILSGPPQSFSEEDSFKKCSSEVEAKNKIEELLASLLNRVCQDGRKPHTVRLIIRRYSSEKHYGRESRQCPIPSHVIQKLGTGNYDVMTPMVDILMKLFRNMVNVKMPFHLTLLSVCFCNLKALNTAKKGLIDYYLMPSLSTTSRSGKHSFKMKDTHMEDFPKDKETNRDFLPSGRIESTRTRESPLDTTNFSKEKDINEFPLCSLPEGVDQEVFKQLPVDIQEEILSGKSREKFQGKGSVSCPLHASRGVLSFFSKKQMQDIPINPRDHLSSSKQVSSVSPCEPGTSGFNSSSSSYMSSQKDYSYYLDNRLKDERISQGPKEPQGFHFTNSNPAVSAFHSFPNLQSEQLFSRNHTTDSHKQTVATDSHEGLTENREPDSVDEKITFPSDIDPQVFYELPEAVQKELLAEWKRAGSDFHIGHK

Row | Compound | Potency | activity, negative = inhibition
1 | Cc1cccn2c(=O)c3cc(C(=O)NCc4ccco4)c(=N)n(CCc4ccccc4)c3nc12 | inconclusive: 25.1 µM [inhibitor, full curve] | 
2 | CC(C)c1ccc(NC(=O)c2ccc(Cn3nc(N4CCN(c5ccccc5)CC4)ccc3=O)o2)cc1 | inconclusive: 63.1 µM [inhibitor, partial curve, poor fit] | 
3 | Cc1ccc(NC(=O)CSC2=NN3CCCC(=O)N=C3S2)cc1Cl | inconclusive: 70.8 µM [inhibitor, partial curve] | 
4 | COc1ccc(S(=O)(=O)N2CCOCC2)cc1NC(=O)COc1ccc2ccc(=O)oc2c1 | inconclusive: 79.4 µM [inhibitor, partial curve, poor fit] | 
5 | C[C@@H]1CC[C@]2(C(=O)O[C@@H]3O[C@H](CO)[C@@H](O)[C@H](O)[C@H]3O)CC[C@]3(C)C(=CCC4[C@@]5(C)C[C@@H](O)[C@H](O)[C@@](C)(C(=O)O[C@@H]6[C@H](O)C[C@@]7(C)C(CC[C@]8(C)C7CC=C7[C@H]9[C@](C(=O)O[C@@H]%10O[C@H](CO)[C@@H](O)[C@H](O)[C@H]%10O)(CC[C@@H](C)[C@@]9(C)O)CC[C@]78C)[C@@]6(CO)C(=O)O)C5CC[C@]43C)[C@@H]2[C@]1(C)O (some centres undefined) | inconclusive: 56.2 µM [inhibitor, partial curve, poor fit] | 
6 | O=S(=O)(c1ccc(Cl)cc1)c1nc(-c2ccccc2)oc1N1CCN(c2ccccc2)CC1 | inconclusive: 89.1 µM [inhibitor, single point] | 
7 | CC(C)NC(=O)/C(C#N)=C/c1cccc(NC(=O)c2ccccc2Cl)c1 | inconclusive: 31.6 µM [inhibitor, single point] | 
8 | CCCCOC(=O)c1ccc(NC(=O)c2ccc(F)cc2F)cc1 | inconclusive: 39.8 µM [inhibitor, single point] | 
9 | Cc1ccc2nc(-c3ccc(NC(=O)CN4CCN(c5ccccn5)CC4)cc3)sc2c1 | inconclusive: 17.8 µM [inhibitor, partial curve, poor fit] | 
10 | NC(=O)c1ncn([C@@H]2O[C@H](CO)[C@@H](O)[C@H]2O)c1O | inconclusive: 4.47 µM [inhibitor, full curve, poor fit] | 
11 | COc1ccc(Nc2c3c(nc4ccc(NC(=O)/C=C/c5cccc(OC)c5OC)cc24)CCCC3)cc1OC | inconclusive: 50.1 µM [inhibitor, partial curve, poor fit] | 
12 | COC(=O)c1ccc(C2NC(c3ccc4c(c3)OCO4)=CC(c3ccccc3O)N2)cc1 (centres undefined) | inconclusive: 35.5 µM [inhibitor, single point] | 
13 | Cn1c(=O)[nH]c(NCCc2ccc(O)cc2)c([N+](=O)[O-])c1=O |  | inactive: 133%
14 | Cn1nnnc1Sc1ncnc2scc(-c3ccc(Cl)cc3)c12 | inconclusive: 17.8 µM [inhibitor, single point] | 
15 | Cn1c(=O)n(C)c2cc([N+](=O)[O-])c(N3CCN(C(=O)C(C)(C)C)CC3)cc21 | inconclusive: 89.1 µM [inhibitor, single point] | 
16 | Oc1ccc2c(c1)C1CCCC1(N1CCOCC1)O2 (centres undefined) | inconclusive: 31.6 µM [inhibitor, single point] | 
17 | CC1CCCCN1Cc1nc2ccccc2c(=O)[nH]1 (centres undefined) | inconclusive: 100 µM [inhibitor, partial curve, poor fit] | 
18 | Cc1ccc(NC(=O)C2CCCCC2C(=O)O)cc1C (centres undefined) | inconclusive: 79.4 µM [inhibitor, single point] | 
19 | CC(N)c1ccc(Cl)cc1Cl (centres undefined) | inconclusive: 89.1 µM [inhibitor, single point] | 
20 | COc1ccccc1N1CCN(C(=O)CN2C(=O)COc3ccc(S(=O)(=O)N4CCCC4)cc32)CC1 |  | inactive: 24.5%

Row | Compound | Potency | activity, negative = inhibition
21 | Cc1cc(OCCCN2CCCC2)ccc1Cl | inconclusive: 0.794 µM [inhibitor, partial curve, poor fit] | 
22 | N=c1c2c3c(sc2ncn1Nc1ccccc1)CCC3 | inconclusive: 39.8 µM [inhibitor, single point] | 
23 | CCN(CC)CCOC(=O)c1ccc(NC(=O)CSc2nnc(-c3cccs3)n2CC)cc1 | inconclusive: 89.1 µM [inhibitor, partial curve, poor fit] | 
24 | CCC(Oc1ccccc1)C(=O)Nc1ccc(OCc2cc(=O)n3ccccc3n2)cc1 (centres undefined) | inconclusive: 39.8 µM [inhibitor, partial curve, poor fit] | 
25 | COc1ccccc1-c1ccc(/C=C2/C=C(CC(C)C)OC2=O)o1 | inconclusive: 31.6 µM [inhibitor, partial curve, poor fit] | 
26 | Cn1c(CNC(=O)CSc2nc(-c3cccc(Cl)c3)nc3cc(=O)[nH]n23)nc2ccccc21 | inconclusive: 89.1 µM [inhibitor, single point] | 
27 | CCn1c(=O)cc(OCC(=O)N2CCN(c3ccccc3OC)CC2)c2ccccc21 |  | inactive: -0.581%
28 | Cc1cccc(Cn2cnc3c(cnn3-c3ccc(Cl)cc3)c2=O)c1 |  | inactive: 36.1%
29 | COC(C(=O)C(O)C(C)O)C1Cc2cc3cc(OC4CC(OC5CC(O)C(O)C(C)O5)C(O)C(C)O4)c(C)c(O)c3c(O)c2C(=O)C1OC1CC(OC2CC(OC3CC(C)(O)C(O)C(C)O3)C(O)C(C)O2)C(O)C(C)O1 (centres undefined) | inconclusive: 14.1 µM [inhibitor, full curve, poor fit] | 
30 | CSc1nc2ccc3nc(NC(=O)c4cccs4)sc3c2s1 | inconclusive: 3.55 µM [inhibitor, full curve, poor fit] | 
31 | Nc1nc2ccc(N3CCOCC3)cc2s1 | inconclusive: 39.8 µM [inhibitor, partial curve, poor fit] | 
32 | CN(C)c1ccc(C(CNC(=O)c2ccccc2)c2c[nH]c3ccccc23)cc1 (centres undefined) | inconclusive: 15.8 µM [inhibitor, partial curve, poor fit] | 
33 | Cc1sc2ncnc(N3CCN(Cc4ccccc4)CC3)c2c1-c1ccccc1 | active: 89.1 µM | 
34 | O=C(O)C1C2C=CC3(CN(C4CCCC4)C(=O)C13)O2 (centres undefined) | inconclusive: 100 µM [inhibitor, partial curve, poor fit] | 
35 | O=C(C[n+]1ccccc1)c1ccc(O)c(O)c1 | inconclusive: 1.58 µM [inhibitor, full curve, poor fit] | 
36 | COc1cc2c(cc1OC)C(C)N(C(=O)Nc1ccccc1)CC2 (centres undefined) |  | inactive: 188%
37 | Cc1ccc(-c2nc3ccccc3[nH]2)cn1 |  | inactive: 26.4%
38 | COc1ccc(CN2CCN(C(=O)Cn3c(=O)oc4cc(Cl)ccc43)CC2)c(OC)c1OC |  | inactive: 17.7%
39 | O=S(=O)(Nc1nccs1)c1ccc(Nc2nnc(-c3ccccc3)c3ccccc23)cc1 | inconclusive: 14.1 µM [inhibitor, full curve, poor fit] | 
40 | COc1ccc2sc(/C=C/c3ccccc3O)[n+](C)c2c1 | active: 17.8 µM | 

Row | Compound | Potency | activity, negative = inhibition
41 | Cc1ccc2c(c1)C(c1ccccc1)N(C(=O)COc1ccc(Cl)cc1Cl)CC(=O)N2 (centres undefined) |  | inactive: 1.17%
42 | CC(NC(=O)c1cc(-c2ccccn2)nc2ccc(Cl)cc12)C1CCCO1 (centres undefined) | inconclusive: 35.5 µM [inhibitor, single point] | 
43 | CC(/C=N/n1c(-c2ccccn2)n[nH]c1=S)=C\c1ccccc1 | inconclusive: 25.1 µM [inhibitor, full curve, poor fit] | 
44 | COc1ccc(NC(=O)NNC(=O)CCc2ccc(O)c(O)c2)cc1OC | inconclusive: 79.4 µM [inhibitor, partial curve] | 
45 | O=C(Nc1ccccc1)NC1CCCc2ccccc21 (centres undefined) | inconclusive: 79.4 µM [inhibitor, single point] | 
46 | O=P(O)(c1ccccc1)c1ccccc1O | inconclusive: 39.8 µM [inhibitor, single point] | 
47 | COc1cccc(C(=O)Nc2nc(-c3nnn(-c4ccccc4C(F)(F)F)c3C)ns2)c1 |  | inactive: -2.09%
48 | COc1cccc(CNC(=O)Cn2nc(C)n3c(cc4cc(C)ccc43)c2=O)c1OC |  | inactive: 29.2%
49 | O=C(c1ccc2c(c1)OCO2)N1CCCC1 | inconclusive: 0.631 µM [inhibitor, full curve, poor fit] | 
50 | COc1cc(/C=C2/C(=O)NN(c3cccc(Cl)c3)C2=O)cc(OC)c1O | inconclusive: 14.1 µM [inhibitor, full curve, poor fit] | 
51 | O=C(O)COc1ccccc1/C=N/NC(=O)CSc1nc2ccccc2n1Cc1ccccc1 | inconclusive: 25.1 µM [inhibitor, partial curve, poor fit] | 
52 | COc1ccc(C2=CCN3CCCCC3C2)c(-c2ccc(OC)c(OC)c2)c1 (centres undefined) | inconclusive: 25.1 µM [inhibitor, partial curve] | 
53 | NC(=O)c1nsc(C(=O)N(CC(=O)NCc2ccc(F)cc2)Cc2ccco2)c1N | inconclusive: 89.1 µM [inhibitor, single point] | 
54 | COc1ccc(CNCCc2ccc([N+](=O)[O-])cc2)c(OC)c1OC |  | inactive: 5.59%
55 | COc1cccc(N2CCN(C(=O)c3cnc4c(-c5ccc(F)cc5)c(C)nn4c3C)CC2)c1 |  | inactive: -21.3%
56 | COc1ccc(C(=O)Oc2c(Sc3ccccc3)c(C)nn2-c2ccccc2)c(OC)c1 | inconclusive: 50.1 µM [inhibitor, partial curve, poor fit] | 
57 | CCOC(=O)c1ccccc1NC(=O)c1cccc2c1C(=O)N(C1CCN(C(=O)OCC)CC1)C2 | inconclusive: 3.16 µM [inhibitor, single point] | 
58 | O=C(O)c1ccc(/C=C2\SC(=S)N(Nc3ccccc3)C2=O)cc1 | inconclusive: 15.8 µM [inhibitor, full curve, poor fit] | 
59 | CCc1nc(SCC(=O)N2CC(=O)Nc3ccccc32)c2c(C)c(C)sc2n1 | inconclusive: 39.8 µM [inhibitor, single point] | 

Gathered by group: those above containing a nitro group on carbon.
Row | Compound | Potency | activity, negative = inhibition
13 | Cn1c(=O)[nH]c(NCCc2ccc(O)cc2)c([N+](=O)[O-])c1=O |  | inactive: 133%
15 | Cn1c(=O)n(C)c2cc([N+](=O)[O-])c(N3CCN(C(=O)C(C)(C)C)CC3)cc21 | inconclusive: 89.1 µM [inhibitor, single point] | 
54 | COc1ccc(CNCCc2ccc([N+](=O)[O-])cc2)c(OC)c1OC |  | inactive: 5.59%

From PubChem BioAssay AID588590 (National Center for Advancing Translational Sciences (NCATS), 2011)
